Laboratory results from patent US20090305971A1 (YALE UNIVERSITY, published 2009).
These are yes or no findings as the source states them, for the method shown. For some assays here: Binding seen in cells or lysates may run through a third protein. Some entries that bind do so weakly or less than the wild type. For some assays here: Tags and fused reporters may be left off the sequences shown.

Tests used:
[1] = biological target: T1, human Nogo-B receptor (NgBR), expressed from the cloned cDNA on transfected COS-7 or CHO cells (human) (UniProt Q96E22); test: competition with 10 nM AP-Am-Nogo-B on CHO cells transfected with NgBR (FIG. 8)
T1 sequence: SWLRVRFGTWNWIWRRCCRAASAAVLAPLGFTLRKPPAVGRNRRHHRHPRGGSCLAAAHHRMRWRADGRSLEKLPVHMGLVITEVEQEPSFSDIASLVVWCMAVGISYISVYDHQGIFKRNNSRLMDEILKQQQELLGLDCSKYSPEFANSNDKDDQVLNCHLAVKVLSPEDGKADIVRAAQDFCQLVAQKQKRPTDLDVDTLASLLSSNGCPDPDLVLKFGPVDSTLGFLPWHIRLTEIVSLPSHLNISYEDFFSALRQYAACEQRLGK

[2] = biological target: T2, NgBR-HA (full-length human NgBR with a C-terminal HA tag) (human) (UniProt Q96E22); test: co-immunoprecipitation: CHO lysates with NgBR-HA mixed with purified Am-Nogo-B-myc, anti-HA beads, Western blot (FIG. 9)
T2 sequence: T1 sequence

[3] = biological target: T1, human Nogo-B receptor (NgBR), expressed from the cloned cDNA on transfected COS-7 or CHO cells (human); test: legend of FIG. 8, competition with AP-Am-Nogo-B on CHO cells expressing NgBR
[4] = biological target: T3, Nogo-B receptor (NgBR), endogenous, on human umbilical vein endothelial cells (HUVEC) (human) (UniProt Q96E22); test: surface binding of AP proteins to HUVEC (FIG. 12)
T3 sequence: T1 sequence

[5] = biological target: T1, human Nogo-B receptor (NgBR), expressed from the cloned cDNA on transfected COS-7 or CHO cells (human); test: surface binding of AP proteins to CHO cells expressing NgBR (FIG. 11)
[6] = biological target: T1, human Nogo-B receptor (NgBR), expressed from the cloned cDNA on transfected COS-7 or CHO cells (human); test: AP-fusion binding to cells expressing NgBR after S2 siRNA (FIG. 26D)
[7] = biological target: T1, human Nogo-B receptor (NgBR), expressed from the cloned cDNA on transfected COS-7 or CHO cells (human); test: AP-fusion binding to stable CHO cell lines (FIG. 20)
[8] = biological target: T1, human Nogo-B receptor (NgBR), expressed from the cloned cDNA on transfected COS-7 or CHO cells (human); test: legend of FIG. 7
[9] = biological target: T1, human Nogo-B receptor (NgBR), expressed from the cloned cDNA on transfected COS-7 or CHO cells (human); test: increasing concentrations of AP proteins on CHO cells expressing NgBR, 2 hours at 4 C (FIG. 10)
[10] = biological target: T1, human Nogo-B receptor (NgBR), expressed from the cloned cDNA on transfected COS-7 or CHO cells (human); test: legend of FIG. 10
[11] = biological target: T3, Nogo-B receptor (NgBR), endogenous, on human umbilical vein endothelial cells (HUVEC) (human); test: legend of FIG. 42
[12] = biological target: T3, Nogo-B receptor (NgBR), endogenous, on human umbilical vein endothelial cells (HUVEC) (human); test: legend of FIG. 45 (HUVEC part)
[13] = biological target: T3, Nogo-B receptor (NgBR), endogenous, on human umbilical vein endothelial cells (HUVEC) (human); test: legend of FIG. 4, AP-fusion binding to HUVEC
[14] = biological target: T3, Nogo-B receptor (NgBR), endogenous, on human umbilical vein endothelial cells (HUVEC) (human); test: AP-fusion binding to HUVEC 72 hours after NgBR siRNA
[15] = biological target: T1, human Nogo-B receptor (NgBR), expressed from the cloned cDNA on transfected COS-7 or CHO cells (human); test: legend of FIG. 8
[16] = biological target: T2, NgBR-HA (full-length human NgBR with a C-terminal HA tag) (human); test: AP-fusion binding to cells expressing NgBR-HA after S2 siRNA (FIG. 26D)
[17] = biological target: T1, human Nogo-B receptor (NgBR), expressed from the cloned cDNA on transfected COS-7 or CHO cells (human); test: AP-fusion binding to COS cells transfected with the NgBR cDNA, AP staining (FIG. 6)
[18] = biological target: T1, human Nogo-B receptor (NgBR), expressed from the cloned cDNA on transfected COS-7 or CHO cells (human); test: legend of FIG. 58

Measured: binding

Am-Nogo-B (residues 1-200 of human Nogo-B, secreted, with Myc-His tag) (from UniProt Q9NQC3 1-200) (ligand)
binds: [1] | [2] | [3]

AP-Nogo-B (61-200) (from UniProt Q9NQC3 61-200) (ligand)
binds: [4] | [5]

B1: AP-Am-Nogo-B (alkaline phosphatase fusion protein with residues 1-200 at the amino terminus of human Nogo-B) (ligand, UniProt Q9NQC3-2 1-200, looked up)
chain: MEDLDQSPLVSSSDSPPRPQPAFKYQFVREPEDEEEEEEEEEEDEDEDLEELEVLERKPAAGLSAAPVPTAPAAGAPLMDFGNDFVPPAPRGPLPAAPPVAPERQPSWDPSPVSSTVPAPSPLSAAAVSPSKLPEDDEPPARPPPPPPASVSPQAEPVWTPPAPAPAAPPSTPAAPKRRGSSGSVVVDLLYWRDIKKTGV
notes: range 1-200; also called full-length AP-Am-Nogo-B; APNogo200; not shown: placental alkaline phosphatase coding region of vector pcAP-5
not listed: [1] | [2] | [3]
binds: all other assays above
